# Results taken from PMC12866826.
# Protein sequences, listed by entry. Tags and fused reporters are not part of them. Residues count along the entry.
# UniProt O14763, residues 56-440: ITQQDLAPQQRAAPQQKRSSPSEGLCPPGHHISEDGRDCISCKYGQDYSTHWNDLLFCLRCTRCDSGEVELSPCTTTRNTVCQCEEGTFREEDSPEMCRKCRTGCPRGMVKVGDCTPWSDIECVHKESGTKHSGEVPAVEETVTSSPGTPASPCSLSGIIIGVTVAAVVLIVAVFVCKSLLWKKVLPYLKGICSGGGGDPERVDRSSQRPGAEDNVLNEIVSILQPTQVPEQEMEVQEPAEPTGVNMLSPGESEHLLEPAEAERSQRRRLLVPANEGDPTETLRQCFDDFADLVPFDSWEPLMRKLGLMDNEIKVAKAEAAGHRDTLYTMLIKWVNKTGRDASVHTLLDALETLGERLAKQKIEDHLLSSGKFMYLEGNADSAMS
# UniProt Q15545: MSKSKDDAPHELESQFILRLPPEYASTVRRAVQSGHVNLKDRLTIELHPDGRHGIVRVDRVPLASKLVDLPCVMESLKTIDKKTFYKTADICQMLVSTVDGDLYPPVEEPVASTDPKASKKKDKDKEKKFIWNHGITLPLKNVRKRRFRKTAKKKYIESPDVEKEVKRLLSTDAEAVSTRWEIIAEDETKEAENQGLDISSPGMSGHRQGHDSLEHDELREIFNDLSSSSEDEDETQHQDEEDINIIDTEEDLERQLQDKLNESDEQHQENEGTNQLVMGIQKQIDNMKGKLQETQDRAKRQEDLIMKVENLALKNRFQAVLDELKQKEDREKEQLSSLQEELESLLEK
# UniProt Q16594: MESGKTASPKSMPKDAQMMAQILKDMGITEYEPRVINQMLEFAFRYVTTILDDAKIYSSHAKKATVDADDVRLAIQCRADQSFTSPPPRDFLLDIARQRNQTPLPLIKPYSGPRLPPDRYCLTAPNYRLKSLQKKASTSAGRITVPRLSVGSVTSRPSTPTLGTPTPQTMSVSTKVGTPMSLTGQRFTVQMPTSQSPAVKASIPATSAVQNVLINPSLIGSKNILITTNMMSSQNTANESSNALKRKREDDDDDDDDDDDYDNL
# UniProt O00268: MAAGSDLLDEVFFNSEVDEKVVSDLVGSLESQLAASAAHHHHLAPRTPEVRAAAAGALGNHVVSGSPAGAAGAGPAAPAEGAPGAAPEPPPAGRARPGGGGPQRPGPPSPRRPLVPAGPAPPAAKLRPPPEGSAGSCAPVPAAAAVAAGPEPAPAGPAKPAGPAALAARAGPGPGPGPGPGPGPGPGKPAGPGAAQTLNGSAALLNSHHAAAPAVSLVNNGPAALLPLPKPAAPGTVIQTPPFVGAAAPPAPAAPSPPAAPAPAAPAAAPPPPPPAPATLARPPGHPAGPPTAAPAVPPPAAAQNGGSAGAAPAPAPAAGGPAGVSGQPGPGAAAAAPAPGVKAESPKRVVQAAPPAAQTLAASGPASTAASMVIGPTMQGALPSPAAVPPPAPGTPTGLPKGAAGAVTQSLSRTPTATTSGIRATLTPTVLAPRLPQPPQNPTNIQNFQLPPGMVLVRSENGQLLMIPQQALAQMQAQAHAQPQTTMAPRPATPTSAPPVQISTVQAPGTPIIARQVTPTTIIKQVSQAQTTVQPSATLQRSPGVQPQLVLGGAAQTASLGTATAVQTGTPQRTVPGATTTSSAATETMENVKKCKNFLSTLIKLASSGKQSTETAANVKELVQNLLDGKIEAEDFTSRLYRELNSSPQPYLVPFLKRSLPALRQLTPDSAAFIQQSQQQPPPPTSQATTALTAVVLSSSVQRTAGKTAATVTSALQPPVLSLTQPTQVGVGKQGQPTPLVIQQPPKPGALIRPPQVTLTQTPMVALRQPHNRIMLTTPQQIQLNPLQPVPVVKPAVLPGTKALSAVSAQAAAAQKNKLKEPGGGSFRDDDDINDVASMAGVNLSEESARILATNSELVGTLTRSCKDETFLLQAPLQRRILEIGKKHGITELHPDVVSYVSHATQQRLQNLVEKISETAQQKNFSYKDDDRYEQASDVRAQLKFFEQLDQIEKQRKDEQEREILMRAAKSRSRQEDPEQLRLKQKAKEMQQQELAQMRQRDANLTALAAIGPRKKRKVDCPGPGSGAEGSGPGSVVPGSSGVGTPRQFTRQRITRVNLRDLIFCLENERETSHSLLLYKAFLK
# These are yes or no findings as the source states them, for the method shown. In cells and extracts the contact can be indirect. Here binding means that the protein was enriched with, or labelled near, the bait; the list need not be complete.
# Target: death receptor 5 (DR5) (human (endogenous in CCD 841 CoN)) (UniProt O14763)
# Assay: affinity purification with mass spectrometry; CCD 841 CoN cells lysed in Pierce IP lysis buffer; supernatant immunoprecipitated with anti-DR5 antibody (4 h, 4 °C), then Protein A/G Agarose overnight at 4 °C; precipitate digested for LC-MS/MS
row,Substance,binding
1,TAF7 (from UniProt Q15545 1-349),binds
2,TAF9 (from UniProt Q16594 1-264),binds
3,TBP-related factor 4 (TAF4) (from UniProt O00268 1-1085),binds
